# Measured values taken from the supplement of paper PMC9578143, “Small-Molecule Ebselen Binds to YTHDF Proteins Interfering with the Recognition of N^6-Methyladenosine-Modified RNAs” (ACS Pharmacology & Translational Science, 2022).
# The list shows a part of the results. Baselines shift from plate to plate; read single values as rough.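 Hits were defined as a z-score below −3.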
# Target: T1, YTHDF1 YTH domain (aa 365-554) (UniProt Q9BYJ9)
# T1 sequence (whole entry): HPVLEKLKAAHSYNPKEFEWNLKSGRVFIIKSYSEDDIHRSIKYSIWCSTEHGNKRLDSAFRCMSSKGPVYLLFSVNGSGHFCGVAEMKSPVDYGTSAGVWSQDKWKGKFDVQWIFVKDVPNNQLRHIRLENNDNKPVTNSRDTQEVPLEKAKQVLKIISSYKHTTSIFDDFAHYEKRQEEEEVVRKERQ
# Assay: tryptophan fluorescence intensity z-score (mean); higher = higher fluorescence, less quenching (negative = binding / quenching)
# Conditions: 10 µM
row,SMILES,tryptophan fluorescence intensity z-score
1,C[N+]1(C)[C@@H]2C[C@@H](OC(=O)[C@H](CO)c3ccccc3)C[C@H]1[C@@H]1O[C@@H]12 (plate: M 3-4),inactive: 0.079
2,C[C@]12CC[C@H](O)C[C@@H]1CC[C@@H]1[C@@H]2CC[C@]2(C)C(=O)CC[C@@H]12 (plate: M 17-18),inactive: 0.404
3,CO[C@H]1C[C@H](O[C@H]2CC[C@]3(C=O)[C@H]4CC[C@]5(C)[C@@H](C6=CC(=O)OC6)CC[C@]5(O)[C@@H]4CC[C@]3(O)C2)O[C@H](C)[C@H]1O (plate: M 15-16),inactive: 0.544
4,CC1(C)C2C[C@@H](O)[C@]3(C)C(CC[C@@]4(C)[C@H](c5ccoc5)OC(=O)[C@H]5O[C@]543)[C@@]2(C)[C@@H](O)C[C@H]1O (some centres undefined) (plate: M 13-14),inactive: -0.0564
5,C[C@@H]1O[C@@H](O[C@H]2C[C@@H](O)[C@]3(CO)[C@H]4[C@H](O)C[C@]5(C)[C@@H](C6=CC(=O)OC6)CC[C@]5(O)[C@@H]4CC[C@]3(O)C2)[C@H](O)[C@H](O)[C@H]1O (plate: M 5-6),inactive: 0.188
6,COc1ccc2c3c([nH]c2c1)C(C)=NCC3 (plate: M 17-18),inactive: 0.593
7,COc1ccc(Cc2nccc3cc(OC)c(OC)cc23)cc1OC (plate: M 3-4),inactive: 0.32
8,CC(=O)OCC1=C(C(=O)O)N2C(=O)[C@@H](NC(=O)CCCC(N)C(=O)O)[C@H]2SC1 (some centres undefined) (plate: M 17-18),inactive: -0.0824
9,CCC1(CC)C(=O)C=CNC1=O (plate: M 23-24),inactive: -0.0597
10,O=C(NC(=O)c1c(F)cccc1F)Nc1cc(Cl)c(OC(F)(F)C(F)C(F)(F)F)cc1Cl (centres undefined) (plate: M 23-24),inactive: 0.446
11,COc1cc2c(cc1OC)[C@@]13CCN4CC5=CCO[C@H]6CC(=O)N2[C@H]1[C@H]6[C@H]5C[C@H]43 (plate: M 5-6),inactive: -0.0263
12,C=C(C)[C@H]1Cc2c(ccc3c2O[C@@H]2COc4cc(OC)c(OC)cc4[C@@H]2C3=O)O1 (plate: M 15-16),inactive: 0.00942
13,COC(=O)C1=CCCN(C)C1 (plate: M 5-6),inactive: 0.0611
14,CC(=O)O[C@H]1C[C@H](O[C@H]2[C@@H](O)C[C@H](O[C@H]3[C@@H](O)C[C@H](O[C@H]4CC[C@@]5(C)[C@H](CC[C@@H]6[C@@H]5C[C@@H](O)[C@]5(C)[C@@H](C7=CC(=O)OC7)CC[C@]65O)C4)O[C@@H]3C)O[C@@H]2C)O[C@H](C)[C@H]1O[C@@H]1O[C@H](CO)[C@@H](O)[C@H](O)[C@H]1O (plate: M 13-14),inactive: 0.316
15,COc1ccc(CCN2CCC(Nc3nc4ccccc4n3Cc3ccc(F)cc3)CC2)cc1 (plate: M 11-12),inactive: -0.26
16,O=C1C=C2C(=CCOC2O)O1 (centres undefined) (plate: M 19-20),inactive: 0.247
17,CC1=C2[C@H]3OC(=O)[C@@H](C)[C@@H]3CC[C@@]2(C)C=CC1=O (plate: M 17-18),inactive: 0.239
18,CCC(N)C(O)c1ccc(O)c(O)c1 (centres undefined) (plate: M 9-10),inactive: 0.658
19,Oc1cc(Cl)ccc1Oc1ccc(Cl)cc1Cl (plate: M 11-12),inactive: -0.353
20,O=C1CCCN1CC#CCN1CCCC1 (plate: M 21-22),inactive: 0.321
21,COC(=O)C(c1ccccc1)C1CCCCN1 (centres undefined) (plate: M 11-12),inactive: 0.294
22,C[C@H]1C(=O)O[C@@H]2CCN3CC=C(COC(=O)[C@](C)(O)[C@]1(C)O)[C@H]23 (plate: M 19-20),inactive: 0.683
23,CC(C)=CCCC1(C)C=Cc2c(O)c3c(c(CC=C(C)C)c2O1)OC12C(=CC4CC1C(C)(C)OC2(C/C=C(/C)C(=O)O)C4O)C3=O (centres undefined) (plate: M 15-16),inactive: 0.0763
24,COC[C@]12CN(C=O)[C@@H]3[C@@H]4[C@H](OC)[C@H]1[C@@]3([C@@H](OC)C[C@H]2O)[C@@H]1C[C@@]2(O)[C@H](OC(=O)c3ccccc3)[C@@H]1[C@]4(OC(C)=O)[C@@H](O)[C@@H]2OC (plate: M 13-14),inactive: 0.342
25,O=C(O)COc1cc(Cl)c(Cl)cc1Cl (plate: M 23-24),inactive: 0.0654
26,CO[C@]12C[C@@H](COC(=O)c3cncc(Br)c3)CN(C)[C@@H]1Cc1cn(C)c3cccc2c13 (plate: M 7-8),inactive: -0.2
27,COc1cc2c(cc1OC)[C@@H]1C(=O)c3ccc4oc(C(C)C)cc4c3O[C@@H]1CO2 (plate: M 15-16),inactive: 0.0259
28,O=C(O)CCC1NCC2CC1CN1CCCCC21 (centres undefined) (plate: M 19-20),inactive: 0.072
29,C[N+]12CCC(CC1)C(OC(=O)C(O)(c1ccccc1)c1ccccc1)C2 (centres undefined) (plate: M 1-2),inactive: -0.11

# Taken from above:
# In tryptophan fluorescence intensity z-score, CC1(C)C2C[C@@H](O)[C@]3(C)C(CC[C@@]4(C)[C@H](c5ccoc5)OC(=O)[C@H]5O[C@]543)[C@@]2(C)[C@@H](O)C[C@H]1O (some centres undefined) (plate: M 13-14) shows inactive: -0.0564
# In tryptophan fluorescence intensity z-score, CO[C@H]1C[C@H](O[C@H]2CC[C@]3(C=O)[C@H]4CC[C@]5(C)[C@@H](C6=CC(=O)OC6)CC[C@]5(O)[C@@H]4CC[C@]3(O)C2)O[C@H](C)[C@H]1O (plate: M 15-16) shows inactive: 0.544
